Source: PubChem BioAssay AID2685 (National Center for Advancing Translational Sciences (NCATS), 2010)
This is one part of the list. The main result of the screen is listed elsewhere. These columns were measured beside it and carry no call. The list favours compounds with an active or inconclusive main result. The note in brackets gives the kind of curve behind each potency; many fits are weak.

Assay: qHTS Assay for Lipid Storage Modulators in Drosophila S3 Cells;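 as to cell number change: cells counted by Cell Tracker Red CMTPX staining in the red channel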
Conditions: BODIPY lipid droplet fluorescence, 18-24 h; for cell number change: measured here: cell count max response, cells fed with added oleic acid
Summary of the method: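 Drosophila S3 cells got compounds at several concentrations plus oleic acid (400 uM solution). Laser-scanning cytometry with 488 nm excitation read lipid droplets at 500-530 nm and cells at 575-640 nm. Percent activity was relative to 20 uM Triacsin C.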

[1] = measured here: lipid fluorescence (Fed channel) AC50, cells fed with added oleic acid
[2] = measured here: cell number channel AC50, cells fed with added oleic acid

SMILES | cell number change | AC50 [1] | AC50 [2]
Cc1cccc(NC(=O)CNC(=O)C(NC(=O)Cc2ccccc2)C(C)C)c1C (configuration not stated) | -4.81% | 1.3 µM [rising, partial curve] | –
CC(NC(=O)COc1ccc(/C=N/NC(=O)C(=O)Nc2ccccc2Br)cc1)c1ccccc1 (configuration not stated) | -14.6% | 0.164 µM [rising, full curve, poor fit] | 0.00461 µM [rising, full curve, poor fit]
CC(Sc1nnc(-c2ccncc2)n1C)C(=O)Nc1ccc(N2CCOCC2)cc1 (configuration not stated) | -50.2% | 32.6 µM [falling, partial curve, poor fit] | 25.9 µM [falling, partial curve, poor fit]
CC(C)(/C=N/O)/[N+]([O-])=C/c1ccccc1 | -43.3% | – | –
Cc1ccc2cc3cc(C(=O)N4CCN(C(=O)c5ccco5)CC4)sc3nc2c1 | – | 2.91 µM [rising, partial curve] | 2.59 µM [rising, partial curve]
O=C(CN(C(=O)c1csnn1)c1ccccc1Cl)NCCc1ccccc1 | 2.56% | 29.1 µM [falling, single point] | –
CCn1ccc(C(=O)Nc2ccc(N(C)C(C)=O)cc2)n1 | 8.63% | 0.092 µM [rising, full curve, poor fit] | –
CC(O)/C=C/c1cccc[n+]1C (configuration not stated) | 24.5% | 6.51 µM [falling, single point] | 6.51 µM [falling, single point]
CC(C)(C)C1CCC(=NNC(=O)C(=O)NCc2ccco2)CC1 (configuration not stated) | -46.4% | – | –
CCOC(=O)C(=O)N1CCC(C(=O)OC)CC1 | -23.9% | 1.16 µM [falling, full curve] | 6.51 µM [falling, single point]
O=C(NCCCc1ccccc1)C(=O)NCC1OCCN1S(=O)(=O)c1ccc(F)cc1 (configuration not stated) | 15.1% | 18.4 µM [rising, single point] | –
Cc1ccoc1C(=O)N1CCN(C(=O)c2occc2C)CC1 | 18.5% | – | –
COc1ccc(CC(=O)N(CCC2=CCCCC2)c2c(N)n(Cc3ccccc3)c(=O)[nH]c2=O)cc1OC | -30.3% | – | 23.1 µM [falling, partial curve]
O=C(/C=C\Nc1ccc(S(=O)(=O)Nc2ncccn2)cc1)c1ccccc1 | -24.9% | 0.206 µM [falling, full curve] | –
Nc1nc(N)nc(-c2cc(C(F)(F)F)ccc2Cl)n1 | 14% | 2.06 µM [rising, single point] | –
CCc1ccc(OCC(=O)N/N=C(\C)c2ccc3c(c2)OCCO3)cc1 | 10.5% | 5.17 µM [rising, partial curve] | –
O=Cc1cccn1-c1cccnc1 | -5.45% | – | 0.00651 µM [falling, full curve, poor fit]
COc1ccc(N(CC(=O)NCc2ccc(C)cc2)S(=O)(=O)c2c(C)noc2C)cc1 | 9.67% | 23.1 µM [rising, partial curve] | –
c1cncc(CNc2ncnc3ccc(-c4ccco4)cc23)c1 | -9.31% | – | –
NC(=O)c1ccc(NCCc2ccccc2)c([N+](=O)[O-])c1 | -37.6% | 6.31 µM [falling, single point] | –
COC(=O)c1ccc(C(=O)OC)c(NC(=S)N2CCN(c3cc(Cl)ccc3C)CC2)c1 | 17.4% | 5.17 µM [rising, partial curve, poor fit] | –
O=C(c1ccc2ccccc2c1)C1CCCN(C(=O)c2cccnc2)C1 (configuration not stated) | -6.07% | 3.26 µM [rising, partial curve, poor fit] | –
CC(C)(C)n1nnnc1CN(Cc1ccco1)Cc1cc2cc3c(cc2[nH]c1=O)OCO3 | – | – | 2.91 µM [rising, partial curve]
CCCn1c(C(C)Nc2nc(-c3cc(Cl)c(N)c(Cl)c3)cs2)nc2cc(Cl)c(N3CCCCC3)cc21 (configuration not stated) | 22.7% | 18.4 µM [rising, partial curve] | –
CN(C)CC(O)COC(c1ccccc1)c1ccccc1 (configuration not stated) | 24.7% | – | 0.00461 µM [falling, full curve, poor fit]
COc1ccc(OC)c(CCNC(=O)Cc2ccc(NC3=NC4CS(=O)(=O)CC4S3)cc2)c1 (configuration not stated) | 18.2% | 29.1 µM [rising, single point] | –
CC(C)=CC(=O)OCC(=O)Nc1ccc(SC(F)F)cc1 | -14% | 5.8 µM [falling, full curve, poor fit] | –
Cc1ccc(S(=O)(=O)N(CCCO)CC(O)CON=C2c3ccccc3-c3ccccc32)cc1 (configuration not stated) | -16.2% | 29.1 µM [falling, single point] | –
COc1ccc(C(=O)C2CCCN(Cc3ccc4c(c3)OCCO4)C2)cc1F (configuration not stated) | 20.8% | 2.59 µM [rising, partial curve, poor fit] | –

Reprinted at random: 2 entries already listed.
SMILES | cell number change | AC50 [1] | AC50 [2]
CC(C)(/C=N/O)/[N+]([O-])=C/c1ccccc1 | -43.3% | – | –
Cc1ccoc1C(=O)N1CCN(C(=O)c2occc2C)CC1 | 18.5% | – | –
